Drawing on publication PMC9021268, this text covers binding for one substance.

The chains behind the UniProt entries cited, without tags or fusion partners.
UniProt P40460: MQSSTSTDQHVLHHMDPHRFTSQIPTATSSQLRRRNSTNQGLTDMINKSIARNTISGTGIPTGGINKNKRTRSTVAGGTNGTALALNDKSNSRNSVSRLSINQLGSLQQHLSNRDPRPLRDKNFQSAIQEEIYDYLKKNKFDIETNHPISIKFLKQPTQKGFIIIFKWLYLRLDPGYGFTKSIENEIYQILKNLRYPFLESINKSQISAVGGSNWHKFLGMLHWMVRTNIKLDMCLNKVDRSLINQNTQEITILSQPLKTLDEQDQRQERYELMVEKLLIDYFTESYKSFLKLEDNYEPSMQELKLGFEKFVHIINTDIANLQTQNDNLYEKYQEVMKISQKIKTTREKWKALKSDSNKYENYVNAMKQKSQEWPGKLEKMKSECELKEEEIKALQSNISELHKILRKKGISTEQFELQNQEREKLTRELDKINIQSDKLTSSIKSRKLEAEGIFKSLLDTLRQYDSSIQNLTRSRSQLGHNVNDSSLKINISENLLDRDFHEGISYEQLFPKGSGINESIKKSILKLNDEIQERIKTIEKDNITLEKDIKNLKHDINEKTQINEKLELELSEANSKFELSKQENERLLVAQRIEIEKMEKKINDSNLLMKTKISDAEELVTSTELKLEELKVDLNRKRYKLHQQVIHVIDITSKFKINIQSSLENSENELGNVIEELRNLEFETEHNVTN

In this assay the target is T1, Dsn1 with 6xHis and 3xFlag tags on its C-terminus (S. cerevisiae) (UniProt P40568).
T1 sequence: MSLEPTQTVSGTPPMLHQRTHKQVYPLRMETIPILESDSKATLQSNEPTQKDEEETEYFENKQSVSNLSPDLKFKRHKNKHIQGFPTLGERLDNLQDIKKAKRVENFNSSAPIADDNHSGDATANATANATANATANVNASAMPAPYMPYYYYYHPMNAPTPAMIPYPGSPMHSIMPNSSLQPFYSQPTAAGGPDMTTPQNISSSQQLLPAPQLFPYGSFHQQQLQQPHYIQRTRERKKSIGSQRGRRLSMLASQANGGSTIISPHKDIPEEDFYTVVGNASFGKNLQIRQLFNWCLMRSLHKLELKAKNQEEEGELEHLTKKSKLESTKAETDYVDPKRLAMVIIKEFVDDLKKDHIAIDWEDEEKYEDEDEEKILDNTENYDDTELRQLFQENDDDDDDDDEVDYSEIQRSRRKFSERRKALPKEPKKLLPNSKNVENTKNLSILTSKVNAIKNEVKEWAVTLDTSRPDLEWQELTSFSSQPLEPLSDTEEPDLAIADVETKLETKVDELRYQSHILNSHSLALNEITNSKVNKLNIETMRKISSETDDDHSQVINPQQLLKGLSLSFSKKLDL
Kind of assay: co-IP; anti-flag Dynabeads on clarified yeast lysate (Dsn1-6His-3Flag, strain SBY8726 shifted to 37 °C), Buffer H (150 mM KCl, 0.1% NP-40), two hours at 4 °C, five washes; immunoblot. A general note: In western blotting, separated proteins are transferred to a membrane and probed.

These are yes or no findings as the source states them, for the method shown. In cells and extracts the contact can be indirect. Some entries that bind do so weakly or less than the wild type. Tags and fused reporters may be left off the sequences shown.

As to Ndc80 (from UniProt P40460 1-691), the binding entry is “binds”.
